Assay results as given in PMC10326024.
Results are given in words; binding and its absence hold for the method and conditions named. For some of these results: In cells and extracts the contact can be indirect. Some results given as binding are weak or reduced against the parent protein; the word gives no strength. For some of these results: Tags and fused reporters may be left off the sequences shown.

The chains behind the UniProt entries cited, without tags or fusion partners.
UniProt P24385: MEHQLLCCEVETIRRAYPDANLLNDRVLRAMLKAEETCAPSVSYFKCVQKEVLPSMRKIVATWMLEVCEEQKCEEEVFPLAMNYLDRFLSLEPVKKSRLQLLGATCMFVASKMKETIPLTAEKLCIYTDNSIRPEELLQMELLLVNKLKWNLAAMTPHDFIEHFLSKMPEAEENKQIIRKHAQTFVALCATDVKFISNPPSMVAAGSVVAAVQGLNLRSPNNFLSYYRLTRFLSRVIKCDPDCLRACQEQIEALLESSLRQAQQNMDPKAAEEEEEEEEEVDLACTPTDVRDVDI

Experiments:
[1] = biological target: T1, MG53 expressed from pcDNA4/TO/myc-HisB (human) (UniProt Q6ZMU5); assay: co-IP; HEK293 cells, both proteins overexpressed; lysis buffer 30 mM HEPES pH 7.6, 100 mM NaCl, 0.5% Nonidet P-40
T1 sequence: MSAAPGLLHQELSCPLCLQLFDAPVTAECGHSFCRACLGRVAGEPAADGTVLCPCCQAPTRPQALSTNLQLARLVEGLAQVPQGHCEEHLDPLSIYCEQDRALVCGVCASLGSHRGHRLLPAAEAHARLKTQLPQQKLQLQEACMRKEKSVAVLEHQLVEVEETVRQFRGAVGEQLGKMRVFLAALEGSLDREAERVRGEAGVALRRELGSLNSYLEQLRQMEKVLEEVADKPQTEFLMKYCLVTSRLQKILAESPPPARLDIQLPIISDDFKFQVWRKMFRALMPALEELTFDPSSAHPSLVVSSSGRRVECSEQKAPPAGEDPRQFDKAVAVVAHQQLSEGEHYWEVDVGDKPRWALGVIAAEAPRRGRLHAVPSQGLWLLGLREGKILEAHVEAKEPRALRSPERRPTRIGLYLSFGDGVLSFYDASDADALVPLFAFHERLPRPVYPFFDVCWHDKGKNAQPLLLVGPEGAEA

[2] = biological target: T2, endogenous MG53 (human (endogenous in HCT116)) (UniProt Q6ZMU5); assay: co-IP; HCT116 cells, both proteins endogenous; lysis buffer 30 mM HEPES pH 7.6, 100 mM NaCl, 0.5% Nonidet P-40
T2 sequence: T1 sequence

[3] = biological target: T3, MYC-tagged MG53 (TRIM72) (human) (UniProt Q6ZMU5); assay: co-IP; AGS cells, MYC-tagged MG53 exogenously overexpressed, cyclin D1 endogenous; lysis buffer 30 mM HEPES pH 7.6, 100 mM NaCl, 0.5% Nonidet P-40
T3 sequence: T1 sequence

[4] = biological target: T4, recombinant human MG53 (rhMG53) (human) (UniProt Q6ZMU5); assay: co-IP; in vitro co-IP of recombinant human MG53 and recombinant human cyclin D1; both purified
T4 sequence: T1 sequence

## cyclin D1-FLAG (from UniProt P24385 1-295)
[1]
  binding: binds

## endogenous cyclin D1 (from UniProt P24385 1-295)
[2]
  binding: binds
[3]
  binding: binds

## recombinant human cyclin D1 (rhCyclin D1) (from UniProt P24385 1-295)
[4]
  binding: binds
